{"sequences": {"note": "Sequences of proteins named here, by UniProt entry; tags and fusion partners are left off. A change or cut given only in a name is not applied to a line headed by its entry.", "UniProt P18054": "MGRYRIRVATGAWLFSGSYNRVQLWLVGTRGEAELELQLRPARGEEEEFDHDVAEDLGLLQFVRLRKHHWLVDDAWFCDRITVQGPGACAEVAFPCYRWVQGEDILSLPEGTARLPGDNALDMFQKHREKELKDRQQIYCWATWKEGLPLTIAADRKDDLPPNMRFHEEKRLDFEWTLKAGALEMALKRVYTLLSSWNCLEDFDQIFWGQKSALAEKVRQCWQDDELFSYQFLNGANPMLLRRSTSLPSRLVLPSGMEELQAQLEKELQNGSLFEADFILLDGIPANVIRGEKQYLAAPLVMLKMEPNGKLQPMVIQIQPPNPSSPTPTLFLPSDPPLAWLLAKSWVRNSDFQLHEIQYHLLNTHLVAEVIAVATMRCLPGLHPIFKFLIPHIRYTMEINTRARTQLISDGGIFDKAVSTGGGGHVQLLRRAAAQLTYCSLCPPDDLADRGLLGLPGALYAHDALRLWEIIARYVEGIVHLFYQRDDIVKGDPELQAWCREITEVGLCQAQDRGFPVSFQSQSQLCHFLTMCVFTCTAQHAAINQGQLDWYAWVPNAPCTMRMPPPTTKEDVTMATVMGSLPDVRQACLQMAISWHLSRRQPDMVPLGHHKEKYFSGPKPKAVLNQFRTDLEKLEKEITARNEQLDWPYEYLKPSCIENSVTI"}, "source": "PubChem BioAssay AID1671190", "about": "(National Center for Advancing Translational Sciences (NCATS), 2021)", "note": "“And” between values parts separate entries of the source, which are not always exact repeats. Equal entries are not always repeated. Hit rate of the full screen: of about 580,000 compounds, about 6,100 (1.1%) were called active. Inconclusive means that the source gave no clear call. Such entries were picked first, then a sample of the others. Calls follow the shape of the dose curve; as a rule, active = well fitted inhibition curve with a large enough effect; inconclusive = small, poorly fitted or top-dose-only effect, or another doubt; inactive = no such curve, though single readings can be large or run the other way. Potencies beside an inconclusive call are fits to weak or partial responses and may not hold up. % is scaled to controls: 0 for no effect and ±100 for the full control effect; potency is read from the fitted curve at half-maximal effect.", "data": [{"target": "Polyunsaturated fatty acid lipoxygenase ALOX12 (Homo sapiens) (UniProt P18054)", "experiment": "Primary qHTS assay for inhibitors of human arachidonate 12S-lipoxygenase (ALOX12): Round 2", "conditions": "purified 12hLO, xylenol orange hydroperoxide absorbance; activity change, negative = inhibition: at 108 µM (top of the series) unless noted", "method_in_brief": "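Purified human 12hLO at 150 nM in 25 mM Hepes, 0.01% Triton X-100, pH 7.0, preincubated 15 min at room temperature with compound. Reaction started with 40 uM arachidonic acid, 30 min at room temperature. Hydroperoxide measured by Fe-xylenol orange, 573/405 nm absorbance ratio.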", "values": [{"smiles": "Cc1ccc(NC(=O)CN2CCCC2c2ccc(F)cc2)cc1", "note": "(centres undefined)", "Potency": "inactive"}, {"smiles": "N#CCCn1c(=O)c(-c2cc(F)cc(F)c2)nc2cnc(Nc3ccccc3)nc21", "Potency": "inconclusive: 100 µM [inhibitor, single point]"}, {"smiles": "CCOC(=O)c1c(C)oc2cc(Br)c(O)c(Br)c12", "Potency": "inconclusive: 2.24 µM [inhibitor, partial curve, poor fit]"}, {"smiles": "Cc1nc2cnc(N(C)C)nc2n(Cc2ccc(F)cc2)c1=O", "Potency": "inconclusive: 22.4 µM [inhibitor, partial curve, poor fit]"}, {"smiles": "COc1cccc(NC(=S)Nc2cc(C(=O)O)ccc2N2CC3CC(C2)c2cccc(=O)n2C3)c1", "note": "(centres undefined)", "Potency": "inconclusive: 44.7 µM [inhibitor, partial curve, poor fit]"}, {"smiles": "COCc1cc(N2CCNC[C@H]2C)ccc1N1C[C@@H](C)O[C@@H](C)C1", "Potency": "inconclusive: 44.7 µM [inhibitor, partial curve, poor fit]"}, {"smiles": "O=C(NCCc1ccc(F)cc1)C(=O)NCC(c1cccs1)S(=O)(=O)c1cccs1", "note": "(centres undefined)", "Potency": "inactive"}, {"smiles": "O=C(Nc1cccc(Br)c1)N1CCC2(CC1)SCC(=O)N2Cc1ccco1", "Potency": "inactive"}, {"smiles": "COC(=O)CCOc1ccc(S(=O)(=O)Nc2ccc(F)c(F)c2)cc1", "Potency": "inconclusive: 56.2 µM [inhibitor, partial curve, poor fit]"}, {"smiles": "Cc1nn(C)cc1CNC(=O)Nc1cccc(Cl)c1", "Potency": "inconclusive: 1.78 µM [inhibitor, full curve, poor fit]"}, {"smiles": "CC12CCC(c3n[nH]c(=S)nc31)C2(C)C", "note": "(centres undefined)", "Potency": "inconclusive: 39.8 µM [inhibitor, partial curve, poor fit]"}, {"smiles": "CS(=O)(=O)N1CCC(C(=O)Nc2ccc(F)c(Cl)c2)CC1", "Potency": "inactive"}, {"smiles": "Fc1cccc(CN2CCC(Cc3ccccc3)CC2)c1", "Potency": "inconclusive: 0.631 µM [inhibitor, full curve]"}, {"smiles": "CN1C(=O)CO[C@H]2CN(c3ccc(C#N)cn3)C[C@H]21", "Potency": "inactive"}, {"smiles": "O=C(COc1ccccc1)Nn1cnc2ccccc21", "Potency": "inconclusive: 12.6 µM [inhibitor, full curve]"}, {"smiles": "Cn1cccc1C(=S)N1CCOCC1", "Potency": "inconclusive: 100 µM [inhibitor, partial curve, poor fit]"}, {"smiles": "c1ccc(N2CCN(c3nc(N4CCCC4)c4nccnc4n3)CC2)cc1", "Potency": "inconclusive: 39.8 µM [inhibitor, single point]"}, {"smiles": "CC(Oc1cc2oc(=O)cc(-c3ccccc3)c2cc1Cl)C(=O)NCc1cccnc1", "note": "(centres undefined)", "Potency": "inactive"}, {"smiles": "Cc1noc(C)c1COc1ccccc1C(=O)N(C)Cc1ccco1", "Potency": "inconclusive: 28.2 µM [inhibitor, single point]"}, {"smiles": "O=C(CCC1CCCC1)N1CCC2(CC1)CC(N(Cc1ccccc1)C1CC1)CCO2", "note": "(centres undefined)", "Potency": "inconclusive: 70.8 µM [inhibitor, partial curve]"}, {"smiles": "COC(=O)c1ccc(NS(=O)(=O)c2ccc3[nH]c4c(c3c2)CCCCC4)cc1", "Potency": "inconclusive: 56.2 µM [inhibitor, partial curve, poor fit]"}, {"smiles": "CCCCCCNCc1ccc(Br)cc1", "Potency": "inconclusive: 12.6 µM [inhibitor, full curve, poor fit]"}, {"smiles": "CCN(CC)c1ccc(/C=N/N2CC(=O)NC2=S)cc1", "Potency": "active: 3.55 µM"}, {"smiles": "Fc1ccccc1-c1nc(NC2CCCC2)c2ccccc2n1", "Potency": "inactive and inconclusive: 7.94 µM [inhibitor, full curve, poor fit]"}, {"smiles": "O=C(N/N=C/c1cc(Cl)cc([N+](=O)[O-])c1O)c1cccc(S(=O)(=O)N2CCOCC2)c1", "Potency": "inconclusive: 39.8 µM [inhibitor, partial curve, poor fit]"}, {"smiles": "Cc1nnc(NC(=O)c2cc(=O)c3ccc(C)c(C)c3o2)s1", "Potency": "inactive"}, {"smiles": "Cc1c(C(=O)N(C)Cc2ccc(F)cc2)sc(=O)n1Cc1ccccc1C#N", "Potency": "inactive"}, {"smiles": "CC(C)(C)C(=O)/C=c1/[nH]c(=O)/c(=C/c2c(F)c(F)c(F)c(F)c2F)s1", "Potency": "inconclusive: 3.98 µM [inhibitor, full curve, poor fit]"}, {"smiles": "CC(C)C(NS(=O)(=O)c1cccc(C(F)(F)F)c1)C(=O)O", "note": "(centres undefined)", "Potency": "inconclusive: 35.5 µM [inhibitor, partial curve, poor fit]"}, {"smiles": "O=C(Nc1ccc(Cl)cc1Cl)c1cccc(N2C(=O)C=CC2=O)c1", "Potency": "inconclusive: 3.16 µM [inhibitor, full curve, poor fit]"}, {"smiles": "O=C(c1ccc(Cl)cc1)N1CC2(CCCN(C3COC3)C2)Cc2ccccc21", "note": "(centres undefined)", "Potency": "inconclusive: 70.8 µM [inhibitor, single point]"}, {"smiles": "Cc1ccc(C2=NN3C(=O)c4ccccc4C3C2)cc1", "note": "(centres undefined)", "Potency": "inactive"}, {"smiles": "CCOC(=O)c1ccc(NC(=S)N(Cc2cccnc2)Cc2ccco2)cc1", "Potency": "inconclusive: 100 µM [inhibitor, partial curve, poor fit]"}, {"smiles": "C[C@H]1CN([C@@H](C)CO)S(=O)(=O)c2ccc(Br)cc2O[C@H]1CN(C)S(=O)(=O)c1ccccc1", "Potency": "inactive"}, {"smiles": "Cc1ccc(Cc2c(-c3cccc(Br)c3)nc3ccc(C)cn23)cc1", "Potency": "inconclusive: 100 µM [inhibitor, single point]"}, {"smiles": "CC(C)CN(C(=O)CCC(=O)OCC(=O)c1ccc(F)c(F)c1)c1c(N)n(CC(C)C)c(=O)[nH]c1=O", "Potency": "inactive"}, {"smiles": "COc1ccc(-c2ccc3nccn3c2)cc1", "Potency": "inactive"}, {"smiles": "Clc1cccc(Cc2c(-c3cccc(Br)c3)nc3c4ccccc4ccn23)c1", "Potency": "inactive"}, {"smiles": "O=C(O)/C=C/c1ccc(-c2cccc(Cl)c2)s1", "Potency": "inconclusive: 39.8 µM [inhibitor, partial curve, poor fit]"}, {"smiles": "Cc1nnc(N2CCC(C(=O)NCc3ccc(N(C)C)cc3)CC2)c2nn(-c3ccccc3)c(C)c12", "Potency": "inconclusive: 126 µM [inhibitor, partial curve, poor fit]"}, {"smiles": "COc1ccc(N2CCN(CCCn3cnc4c(SC)ncnc43)CC2)cc1", "Potency": "inconclusive: 50.1 µM [inhibitor, partial curve, poor fit]"}, {"smiles": "COC(=O)c1c(NC(NC(=O)C(C)C)C(Cl)(Cl)Cl)sc2c1CCC2", "note": "(centres undefined)", "Potency": "inactive"}, {"smiles": "COC(=O)C1=C(C)N(c2cccc(Cl)c2)C(=O)C1", "Potency": "inconclusive: 44.7 µM [inhibitor, partial curve, poor fit]"}, {"smiles": "Cc1cc(NC(=O)CN2CCN(C(=O)c3c(F)cccc3F)CC2)no1", "Potency": "inactive"}, {"smiles": "O=C(CSc1nc2ccccc2n1Cc1cccc(Cl)c1)N1CCN(c2ccc(F)cc2)CC1", "Potency": "inactive"}, {"smiles": "Cc1cc(-c2ccco2)n[nH]1", "Potency": "inconclusive: 0.501 µM [inhibitor, full curve, poor fit]"}, {"smiles": "COc1ccc(-c2nc3scc(-c4ccccc4)n3n2)cc1", "activity change, negative = inhibition": "inconclusive: -36% [inhibitor]"}, {"smiles": "O=C1C2ON(c3ccccc3)C(c3ccccc3F)C2C(=O)N1c1ccccc1", "note": "(centres undefined)", "Potency": "inactive"}, {"smiles": "O=C(O)c1ccccc1-c1ccccc1C(=O)Nc1cccc(-c2nc3ccccc3o2)c1", "Potency": "active: 11.2 µM"}, {"smiles": "Cc1ccnc(NC(=O)Nc2ccc(Br)cc2Cl)c1", "Potency": "inactive"}, {"smiles": "CC(=O)c1ccc(NC(=S)NCCc2ccc(Cl)cc2)cc1", "Potency": "active: 50.1 µM"}, {"smiles": "COc1ccc(NC(C)=O)cc1NC(=O)C1CCCN1C(=O)C12CC3CC(CC(C3)C1)C2", "note": "(centres undefined)", "Potency": "inconclusive: 44.7 µM [inhibitor, partial curve, poor fit]"}, {"smiles": "COc1ccc(OC)c(N=c2ssnc2Cl)c1", "Potency": "inconclusive: 7.08 µM [inhibitor, full curve, poor fit]"}, {"smiles": "COc1ccc(Nc2nc(-c3ccc(C)cc3)cs2)cc1", "Potency": "inconclusive: 6.31 µM [inhibitor, full curve, poor fit]"}, {"smiles": "COc1nccnc1NS(=O)(=O)c1ccc(NC(=S)NC(=O)c2cccc(F)c2)cc1", "Potency": "inconclusive: 22.4 µM [inhibitor, partial curve]"}, {"smiles": "CC(C)(O)CCc1cccc(C(=O)N2CCC(N3CCOC3=O)CC2)c1", "Potency": "inactive"}, {"smiles": "C=C(C)C(=O)OC1(C(F)(F)F)Oc2cc(C)ccc2NC1=O", "note": "(centres undefined)", "Potency": "inconclusive: 100 µM [inhibitor, single point]"}, {"smiles": "CCCCN(C(=O)CN1CCN(c2ccccc2)CC1)c1c(N)n(CC(C)C)c(=O)[nH]c1=O", "Potency": "inactive"}, {"smiles": "COCCn1ccc2c(C3=CCOCC3)nc(-c3cccc4[nH]ccc34)cc21", "Potency": "inconclusive: 35.5 µM [inhibitor, full curve]"}, {"smiles": "CN1CCc2c(sc3c2c(=O)n(-c2cccc(Cl)c2)c(=O)n3CCN2CCCCC2)C1", "Potency": "inactive"}, {"smiles": "Cn1c(=O)n(C)c2cc(/C=N/NC(=S)NCc3ccccc3)ccc21", "Potency": "inconclusive: 50.1 µM [inhibitor, partial curve, poor fit]"}, {"smiles": "O=C(Nc1ccc2nccnc2c1)Nc1ccccc1Cl", "Potency": "inactive"}, {"smiles": "Cc1ccc2nc(SCC(=O)Nc3c(F)cccc3F)[nH]c2c1", "Potency": "inactive"}, {"smiles": "CNC(=S)NCCc1cc2c(OC)ccc(OC)c2[nH]c1=O", "Potency": "inconclusive: 63.1 µM [inhibitor, partial curve, poor fit]"}, {"smiles": "O=C(c1ccco1)c1nc2c(n1O)CCCCC2", "Potency": "inconclusive: 44.7 µM [inhibitor, partial curve, poor fit]"}, {"smiles": "NC(=O)C1CCCN(Cc2ccc(Cl)cc2)C1", "note": "(centres undefined)", "Potency": "inconclusive: 2.82 µM [inhibitor, full curve, poor fit]"}, {"smiles": "CC(=O)Oc1c(Cl)cc(Cl)cc1Sc1cc(Cl)cc(Cl)c1OC(C)=O", "Potency": "inconclusive: 15.8 µM [inhibitor, partial curve, poor fit]"}, {"smiles": "COc1ccc(CNC(=O)CN2CCN(c3cccc(C)c3C)CC2)cc1", "Potency": "inconclusive: 79.4 µM [inhibitor, partial curve, poor fit]"}, {"smiles": "COC(=O)[C@@H]1Cc2ncn(C)c2CN1C(=O)c1ccc(F)cc1", "Potency": "inconclusive: 50.1 µM [inhibitor, single point]"}]}]}
